No constants are given. Whether binding was seen depends on the method and setting. Some binding calls cover weakened binding; strength is not graded here.
Biological target: 6xHis-tagged human Skp1 (human) (UniProt P63208)
Assay: co-purification; F-box protein co-expressed with 6xHis-tagged Skp1 in E. coli; complex purified by Ni-NTA affinity, anion-exchange and gel-filtration chromatography

- binding: binds
B1: murine Fbs1 (of the Skp1–Fbs1 complex) (protein, UniProt Q80UW2 1-297)
chain: MDGDGDPESVSHPEEASPEEQPEEAGAEASAEEEQLREAEEEEEAEAVEYLAELPEPLLLRVLAELPATELVQACRLVCLRWKELVDGAPLWLLKCQQEGLVPEGSADEERDHWQQFYFLSKRRRNLLRNPCGEEDLEGWSDVEHGGDGWRVEELPGDNGVEFTQDDSVKKYFASSFEWCRKAQVIDLQAEGYWEELLDTTQPAIVVKDWYSGRTDAGSLYELTVRLLSENEDVLAEFATGQVAVPEDGSWMEISHTFIDYGPGVRFVRFEHGGQDSVYWKGWFGARVTNSSVWVEP

Source: paper PMC4603797, “The Structural Differences between a Glycoprotein Specific F-Box Protein Fbs1 and Its Homologous Protein FBG3” (PLoS ONE, 2015)
